Source: PubChem BioAssay AID743454 (Peter MacCallum Cancer Centre, 2014)
The deposit covers about 18,000 reagents; below is a part drawn at random. Over the whole deposit, 450 (2.5%) are marked active. 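Single biological run; no consistent viability z cut-off exists, so the class columns, not z-scores, define the calls.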

Assay: 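Genes whose loss kills vorinostat-resistant colon cancer cells under vorinostat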 (primary screen)
Cells: human HCT116-VR colon cancer cells, selected for vorinostat resistance
Reagents: siRNA pool against human genes, 40 nM siRNA pool
Time to read-out: vorinostat for 24 h, read-out about 72 h after transfection
Challenge: vorinostat at 2.5 µM final
Read-out: 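Two measures, CellTiter-Fluor viability and luminescent caspase 3/7 activity, each as fold change against same-plate mock wells, mean of duplicates, then screen-wide robust z-score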
Direction: viability robust z-score: higher = more viable cells than screen typical; caspase robust z-score: higher = more caspase 3/7 activity than screen typical
Active means: 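Hits are knock-downs in viability class RV1/RV2 or caspase class CA1/CA2, excluding ones that killed cells in the no-drug cell-count arm; hits then retested with single siRNAs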

gene,viability hit class,caspase hit class,viability robust z-score,caspase robust z-score,Outcome
REG4 (regenerating family member 4),no change,no change,-0.46,-1.19,inactive
ZNF681 (zinc finger protein 681),no change,no change,0.52,-0.3,inactive
ARHGEF35 (Rho guanine nucleotide exchange factor 35),no change,no change,-0.44,0.98,inactive
MDK (midkine),no change,no change,0.46,2.1,inactive
STARD7 (StAR related lipid transfer domain containing 7),no change,no change,0.2,3.21,inactive
TMEM50A (transmembrane protein 50A),no change,no change,0.9,0.54,inactive
OR2L8 (olfactory receptor family 2 subfamily L member 8),no change,no change,-0.3,0,inactive
TIGD1 (tigger transposable element derived 1),no change,no change,-0.52,-0.7,inactive
"ABL1 (ABL proto-oncogene 1, non-receptor tyrosine kinase)",no change,no change,1.04,0.79,inactive
TMEM179 (transmembrane protein 179),no change,no change,0.3,0.32,inactive
DPYSL5 (dihydropyrimidinase like 5),no change,no change,0.93,-0.41,inactive
LTAP1 (lipid transport auxiliary protein 1),no change,no change,-0.03,0.02,inactive
NDP (norrin cystine knot growth factor NDP),no change,no change,-3.55,-0.28,inactive
PLGLB2 (plasminogen like B2),no change,no change,0.76,-0.9,inactive
ZNF551 (zinc finger protein 551),no change,no change,-1.53,-0.08,inactive
PDK4 (pyruvate dehydrogenase kinase 4),no change,no change,-1.19,2.46,inactive
ALK (ALK receptor tyrosine kinase),no change,no change,-1.7,2.73,inactive
PUS7 (pseudouridine synthase 7),no change,no change,-0.38,-1.03,inactive
TMEM8B (transmembrane protein 8B),no change,no change,-1.84,1.38,inactive
"NT5C1B (5'-nucleotidase, cytosolic IB)",no change,no change,0.05,-0.44,inactive
FKBP3 (FKBP prolyl isomerase 3),no change,no change,-2.12,1.06,inactive
CCDC13 (coiled-coil domain containing 13),no change,no change,-0.42,3.86,inactive
PITX1 (paired like homeodomain 1),no change,no change,-0.43,-0.11,inactive
STX12 (syntaxin 12),no change,no change,-0.29,0.28,inactive
LSM6,no change,no change,-0.3,2.64,inactive
MRPL35 (mitochondrial ribosomal protein L35),no change,no change,0.62,-0.54,inactive
DGKH (diacylglycerol kinase eta),no change,no change,-0.76,2.05,inactive
CAMK1D (calcium/calmodulin dependent protein kinase ID),no change,no change,0.25,1.5,inactive
DALRD3 (DALR anticodon binding domain containing 3),no change,no change,0.04,2.84,inactive
TSLIG2 (tRNA splicing ligase complex subunit 2),no change,no change,-1.01,2.72,inactive
NMNAT2 (nicotinamide nucleotide adenylyltransferase 2),no change,no change,1.21,-0.26,inactive
ADM2 (adrenomedullin 2),no change,no change,-0.68,3.21,inactive
FAM217B (family with sequence similarity 217 member B),no change,no change,0.4,-0.09,inactive
TOMM7 (translocase of outer mitochondrial membrane 7),no change,no change,-0.16,-0.78,inactive
TSPYL6 (TSPY like 6),no change,no change,-0.56,2.14,inactive
PSG4 (pregnancy specific beta-1-glycoprotein 4),no change,no change,0.15,0.07,inactive
POMZP3 (POM121 and ZP3 fusion),no change,no change,-0.28,1.45,inactive
C8A (complement C8 alpha chain),no change,no change,0.46,-0.58,inactive
"PRSS45P (serine protease 45, pseudogene)",no change,no change,0.26,-0.61,inactive
CACNB3 (calcium voltage-gated channel auxiliary subunit beta 3),no change,no change,0.5,3.15,inactive
NELL2 (neural EGFL like 2),no change,no change,0.59,0.32,inactive
ARHGAP17 (Rho GTPase activating protein 17),no change,no change,0.65,1.03,inactive
TM2D1 (TM2 domain containing 1),no change,no change,1.67,-0.16,inactive
SAG (S-antigen visual arrestin),no change,no change,0.29,0.67,inactive
POU3F1 (POU class 3 homeobox 1),no change,no change,-0.68,-0.8,inactive
BMS1 (BMS1 ribosome biogenesis factor),no change,no change,-0.08,-0.58,inactive
KCNC2 (potassium voltage-gated channel subfamily C member 2),no change,no change,1.27,-0.86,inactive
PRAMEF6 (PRAME family member 6),no change,no change,-0.32,0.3,inactive
SLC30A4,no change,no change,0.55,-0.46,inactive
ACE2 (angiotensin converting enzyme 2),no change,no change,-0.01,-0.94,inactive
RNASE6 (ribonuclease A family member 6),no change,no change,-0.78,-0.9,inactive
PPCDC (phosphopantothenoylcysteine decarboxylase),no change,no change,0.02,0.05,inactive
NUP85 (nucleoporin 85),no change,CA1 (caspase activation),-0.5,5.49,active
"METTL23 (methyltransferase 23, arginine)",no change,no change,-0.4,-0.63,inactive
ERBB3 (erb-b2 receptor tyrosine kinase 3),no change,no change,-0.51,1.77,inactive
HSPH1 (heat shock protein family H (Hsp110) member 1),no change,no change,0.36,0.01,inactive
ANOS1 (anosmin 1),no change,no change,1.06,0.54,inactive
